Results reported in the supplement of paper PMC10849652.
Some of the results follow.

Chains of the proteins cited; added tags and fusions are not shown. Lines headed by an entry give the natural chain unless they say otherwise; changes in a name come on top.
UniProt P29034: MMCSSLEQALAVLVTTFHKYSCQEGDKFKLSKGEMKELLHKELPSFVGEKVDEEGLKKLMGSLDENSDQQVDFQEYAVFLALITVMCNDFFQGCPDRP
UniProt Q8WWV3: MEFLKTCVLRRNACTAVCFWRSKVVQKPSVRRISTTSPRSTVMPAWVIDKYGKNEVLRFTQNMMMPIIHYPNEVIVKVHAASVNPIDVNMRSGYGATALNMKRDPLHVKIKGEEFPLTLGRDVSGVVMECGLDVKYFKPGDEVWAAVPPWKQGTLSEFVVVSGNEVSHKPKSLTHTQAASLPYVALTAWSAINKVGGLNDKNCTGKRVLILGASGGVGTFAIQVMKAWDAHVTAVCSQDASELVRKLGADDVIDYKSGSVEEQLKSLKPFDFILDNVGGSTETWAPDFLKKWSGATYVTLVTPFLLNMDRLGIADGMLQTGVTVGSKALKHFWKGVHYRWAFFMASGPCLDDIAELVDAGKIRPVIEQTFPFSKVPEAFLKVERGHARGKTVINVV
UniProt Q15404: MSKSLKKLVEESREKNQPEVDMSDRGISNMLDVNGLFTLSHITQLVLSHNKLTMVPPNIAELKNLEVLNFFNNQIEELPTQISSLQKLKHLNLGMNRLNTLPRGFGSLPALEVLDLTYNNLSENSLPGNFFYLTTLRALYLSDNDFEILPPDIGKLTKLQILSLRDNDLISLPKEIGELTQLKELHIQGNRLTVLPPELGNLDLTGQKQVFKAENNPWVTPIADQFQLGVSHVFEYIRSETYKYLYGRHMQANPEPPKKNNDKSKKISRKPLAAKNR
UniProt Q7LG56, whole entry, looked up: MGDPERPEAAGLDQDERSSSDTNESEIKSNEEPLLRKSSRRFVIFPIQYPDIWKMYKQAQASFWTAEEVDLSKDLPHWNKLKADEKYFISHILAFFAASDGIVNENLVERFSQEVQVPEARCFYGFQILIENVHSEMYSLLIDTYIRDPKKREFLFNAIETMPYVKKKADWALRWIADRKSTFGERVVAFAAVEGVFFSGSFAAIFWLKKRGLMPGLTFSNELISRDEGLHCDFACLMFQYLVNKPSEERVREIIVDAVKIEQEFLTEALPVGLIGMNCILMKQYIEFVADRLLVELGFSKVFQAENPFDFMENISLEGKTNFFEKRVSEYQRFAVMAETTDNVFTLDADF
UniProt Q9NYV6: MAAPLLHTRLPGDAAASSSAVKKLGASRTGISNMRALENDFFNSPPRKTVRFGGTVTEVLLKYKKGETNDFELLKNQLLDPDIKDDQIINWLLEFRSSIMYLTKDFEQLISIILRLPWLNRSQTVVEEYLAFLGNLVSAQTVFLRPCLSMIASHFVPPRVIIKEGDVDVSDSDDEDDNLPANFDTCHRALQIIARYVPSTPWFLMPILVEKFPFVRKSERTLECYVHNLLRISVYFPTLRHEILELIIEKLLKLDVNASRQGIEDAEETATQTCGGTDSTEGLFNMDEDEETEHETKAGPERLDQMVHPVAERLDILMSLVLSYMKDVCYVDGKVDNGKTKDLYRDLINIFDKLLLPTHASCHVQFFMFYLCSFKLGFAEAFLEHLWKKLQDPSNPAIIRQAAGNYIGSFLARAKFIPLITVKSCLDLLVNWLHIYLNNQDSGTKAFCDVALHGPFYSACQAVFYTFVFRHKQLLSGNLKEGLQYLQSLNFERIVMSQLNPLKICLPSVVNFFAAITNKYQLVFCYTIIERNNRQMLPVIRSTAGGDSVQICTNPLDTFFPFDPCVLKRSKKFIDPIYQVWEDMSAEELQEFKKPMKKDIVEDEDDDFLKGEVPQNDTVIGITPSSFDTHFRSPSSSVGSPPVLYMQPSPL
UniProt Q9H633: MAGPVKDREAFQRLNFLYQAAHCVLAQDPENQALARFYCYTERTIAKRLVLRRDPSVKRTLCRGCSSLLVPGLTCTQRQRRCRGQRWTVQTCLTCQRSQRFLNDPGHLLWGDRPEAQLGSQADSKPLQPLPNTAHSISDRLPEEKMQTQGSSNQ
UniProt Q86VV8: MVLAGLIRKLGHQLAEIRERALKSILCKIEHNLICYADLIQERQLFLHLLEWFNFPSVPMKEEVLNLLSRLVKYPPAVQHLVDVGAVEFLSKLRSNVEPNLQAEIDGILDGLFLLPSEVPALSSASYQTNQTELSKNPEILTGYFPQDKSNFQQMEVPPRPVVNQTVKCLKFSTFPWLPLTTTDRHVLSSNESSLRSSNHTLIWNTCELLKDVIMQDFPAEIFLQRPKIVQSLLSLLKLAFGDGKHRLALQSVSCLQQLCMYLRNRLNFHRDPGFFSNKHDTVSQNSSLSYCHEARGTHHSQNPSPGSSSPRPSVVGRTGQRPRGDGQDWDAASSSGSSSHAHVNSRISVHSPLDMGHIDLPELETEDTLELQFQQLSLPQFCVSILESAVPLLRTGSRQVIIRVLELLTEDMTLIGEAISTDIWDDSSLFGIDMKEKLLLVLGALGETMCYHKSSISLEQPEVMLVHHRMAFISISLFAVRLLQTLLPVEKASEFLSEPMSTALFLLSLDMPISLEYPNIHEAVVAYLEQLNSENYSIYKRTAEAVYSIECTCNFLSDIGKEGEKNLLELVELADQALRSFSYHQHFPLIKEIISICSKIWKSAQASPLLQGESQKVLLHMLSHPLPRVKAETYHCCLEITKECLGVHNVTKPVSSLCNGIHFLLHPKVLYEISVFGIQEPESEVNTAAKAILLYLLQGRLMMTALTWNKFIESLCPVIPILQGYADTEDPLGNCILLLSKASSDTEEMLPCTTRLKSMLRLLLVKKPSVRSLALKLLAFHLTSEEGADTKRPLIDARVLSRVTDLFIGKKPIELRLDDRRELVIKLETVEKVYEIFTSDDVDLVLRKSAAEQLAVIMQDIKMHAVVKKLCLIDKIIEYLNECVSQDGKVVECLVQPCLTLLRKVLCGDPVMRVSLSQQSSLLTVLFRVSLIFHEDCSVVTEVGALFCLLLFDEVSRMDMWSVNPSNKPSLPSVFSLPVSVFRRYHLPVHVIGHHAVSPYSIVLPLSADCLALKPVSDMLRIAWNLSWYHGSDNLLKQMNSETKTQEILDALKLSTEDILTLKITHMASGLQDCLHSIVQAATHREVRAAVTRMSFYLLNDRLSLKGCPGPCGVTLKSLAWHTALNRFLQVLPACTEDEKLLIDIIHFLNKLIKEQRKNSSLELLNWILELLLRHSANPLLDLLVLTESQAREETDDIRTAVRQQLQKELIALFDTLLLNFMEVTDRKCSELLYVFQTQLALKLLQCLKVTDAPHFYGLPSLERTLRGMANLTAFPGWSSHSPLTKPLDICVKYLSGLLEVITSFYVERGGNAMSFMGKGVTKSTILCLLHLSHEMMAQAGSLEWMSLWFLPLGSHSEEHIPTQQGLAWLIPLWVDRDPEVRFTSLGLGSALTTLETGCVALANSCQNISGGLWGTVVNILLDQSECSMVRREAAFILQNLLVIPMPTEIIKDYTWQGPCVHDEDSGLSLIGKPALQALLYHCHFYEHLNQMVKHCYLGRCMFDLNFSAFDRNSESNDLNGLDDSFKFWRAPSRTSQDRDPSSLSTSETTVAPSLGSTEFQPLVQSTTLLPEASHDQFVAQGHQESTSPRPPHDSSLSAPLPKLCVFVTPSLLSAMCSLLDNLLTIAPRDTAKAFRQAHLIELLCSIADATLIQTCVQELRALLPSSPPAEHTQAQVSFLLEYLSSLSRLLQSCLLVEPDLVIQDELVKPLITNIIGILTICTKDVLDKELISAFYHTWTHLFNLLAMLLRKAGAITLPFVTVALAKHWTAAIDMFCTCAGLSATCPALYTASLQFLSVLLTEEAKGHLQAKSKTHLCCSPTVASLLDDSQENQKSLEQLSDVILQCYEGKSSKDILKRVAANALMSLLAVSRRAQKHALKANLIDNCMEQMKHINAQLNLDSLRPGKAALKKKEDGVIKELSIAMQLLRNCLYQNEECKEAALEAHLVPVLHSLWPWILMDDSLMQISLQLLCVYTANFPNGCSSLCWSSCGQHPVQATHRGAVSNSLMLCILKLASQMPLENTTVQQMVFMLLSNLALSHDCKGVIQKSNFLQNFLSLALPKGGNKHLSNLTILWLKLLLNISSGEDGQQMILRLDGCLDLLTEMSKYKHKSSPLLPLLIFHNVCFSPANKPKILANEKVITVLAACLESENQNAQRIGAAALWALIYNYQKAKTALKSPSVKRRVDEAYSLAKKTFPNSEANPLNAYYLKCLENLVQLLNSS
UniProt Q8N488: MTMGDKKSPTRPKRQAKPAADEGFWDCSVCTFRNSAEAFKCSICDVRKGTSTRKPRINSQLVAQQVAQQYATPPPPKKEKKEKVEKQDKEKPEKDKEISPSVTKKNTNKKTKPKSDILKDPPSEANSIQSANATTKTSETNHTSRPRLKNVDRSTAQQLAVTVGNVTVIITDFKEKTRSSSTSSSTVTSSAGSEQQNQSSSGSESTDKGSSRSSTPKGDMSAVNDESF
UniProt P31350, whole entry, looked up: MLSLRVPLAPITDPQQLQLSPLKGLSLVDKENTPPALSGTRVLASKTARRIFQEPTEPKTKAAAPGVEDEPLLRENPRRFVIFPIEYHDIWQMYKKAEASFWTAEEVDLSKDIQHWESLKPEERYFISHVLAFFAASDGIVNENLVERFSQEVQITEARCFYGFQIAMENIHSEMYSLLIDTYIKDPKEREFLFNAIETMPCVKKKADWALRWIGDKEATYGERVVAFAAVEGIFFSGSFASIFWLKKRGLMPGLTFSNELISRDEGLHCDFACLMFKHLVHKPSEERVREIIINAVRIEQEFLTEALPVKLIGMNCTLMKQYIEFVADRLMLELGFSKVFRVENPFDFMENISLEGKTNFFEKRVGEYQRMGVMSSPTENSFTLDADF
UniProt P28702: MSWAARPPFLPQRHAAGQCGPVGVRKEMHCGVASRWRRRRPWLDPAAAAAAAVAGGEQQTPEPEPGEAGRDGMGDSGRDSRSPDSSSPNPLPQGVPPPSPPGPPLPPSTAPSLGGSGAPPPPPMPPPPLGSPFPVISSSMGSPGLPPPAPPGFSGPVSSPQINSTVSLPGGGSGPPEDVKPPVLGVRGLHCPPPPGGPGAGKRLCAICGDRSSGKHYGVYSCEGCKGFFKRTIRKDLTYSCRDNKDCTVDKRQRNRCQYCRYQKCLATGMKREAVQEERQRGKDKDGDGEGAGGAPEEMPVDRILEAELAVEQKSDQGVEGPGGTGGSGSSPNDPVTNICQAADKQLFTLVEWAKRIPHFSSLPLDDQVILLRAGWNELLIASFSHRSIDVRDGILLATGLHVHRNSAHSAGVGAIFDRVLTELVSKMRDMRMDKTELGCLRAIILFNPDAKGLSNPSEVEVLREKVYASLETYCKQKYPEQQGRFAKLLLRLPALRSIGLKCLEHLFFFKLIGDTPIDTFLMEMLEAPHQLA
UniProt P04843: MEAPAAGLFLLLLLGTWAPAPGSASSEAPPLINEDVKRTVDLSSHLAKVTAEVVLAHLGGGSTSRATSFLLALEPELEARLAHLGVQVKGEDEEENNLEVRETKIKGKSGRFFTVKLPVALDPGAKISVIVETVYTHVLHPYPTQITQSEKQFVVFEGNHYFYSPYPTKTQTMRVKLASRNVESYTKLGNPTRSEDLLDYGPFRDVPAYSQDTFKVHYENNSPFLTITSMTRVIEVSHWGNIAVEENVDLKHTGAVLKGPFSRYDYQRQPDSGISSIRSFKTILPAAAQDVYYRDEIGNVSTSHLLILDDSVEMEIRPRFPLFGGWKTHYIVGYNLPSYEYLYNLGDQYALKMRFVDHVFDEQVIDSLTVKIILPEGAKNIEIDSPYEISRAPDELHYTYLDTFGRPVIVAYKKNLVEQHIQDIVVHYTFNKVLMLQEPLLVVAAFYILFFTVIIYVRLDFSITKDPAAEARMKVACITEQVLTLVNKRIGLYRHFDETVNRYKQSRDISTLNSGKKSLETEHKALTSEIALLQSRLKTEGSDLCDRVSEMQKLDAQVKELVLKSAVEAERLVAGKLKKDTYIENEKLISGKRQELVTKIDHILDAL
UniProt Q8N5L8: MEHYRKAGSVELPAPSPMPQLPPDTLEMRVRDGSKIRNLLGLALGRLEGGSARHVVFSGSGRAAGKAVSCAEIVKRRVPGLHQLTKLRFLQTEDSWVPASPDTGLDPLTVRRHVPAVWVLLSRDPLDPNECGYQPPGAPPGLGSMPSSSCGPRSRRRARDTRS
UniProt P57060: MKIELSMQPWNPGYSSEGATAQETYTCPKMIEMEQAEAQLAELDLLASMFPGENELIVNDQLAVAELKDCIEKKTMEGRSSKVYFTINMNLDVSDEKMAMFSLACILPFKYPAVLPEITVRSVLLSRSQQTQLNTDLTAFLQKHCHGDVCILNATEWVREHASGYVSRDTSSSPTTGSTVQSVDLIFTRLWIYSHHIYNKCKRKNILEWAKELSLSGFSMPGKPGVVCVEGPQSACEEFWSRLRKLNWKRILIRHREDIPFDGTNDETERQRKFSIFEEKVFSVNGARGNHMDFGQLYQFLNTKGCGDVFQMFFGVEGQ
UniProt Q9BUL9: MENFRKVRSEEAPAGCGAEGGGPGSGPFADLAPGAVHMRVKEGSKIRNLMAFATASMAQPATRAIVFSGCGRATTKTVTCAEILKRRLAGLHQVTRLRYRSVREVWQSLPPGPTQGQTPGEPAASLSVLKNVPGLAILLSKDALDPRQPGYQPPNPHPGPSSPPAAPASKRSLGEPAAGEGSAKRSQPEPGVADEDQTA

Compound: CC(C)(O)CC(=O)NCCn1ccc2ncnc(Nc3ccc(Oc4cccc(C(F)(F)F)c4)c(Cl)c3)c21
Experiment: log2 fold change, soluble protein after heating vs DMSO (PISA); higher = thermal stabilisation; K562 lysate, 10 uM; active = over 0.2 and 3.5 SD of the protein, either way, in both replicates (recomputed)
How it was run: (§1)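 Thermal stability, expressed as log-two fold change relative to solvent controls, is given from duplicates. Crude K562 extract in PBS pH 7.4 with 1 mM MgCl2, at 1 mg/mL protein, was treated with 10 μM compound for 30 min and heated in aliquots for 3 min across 48°C-58°C. After pooling, adjustment to 0.5% NP-40 at 4°C and centrifugation at 21,000xg for 90 min, supernatant protein was measured by TMTpro 16plex LC-MS/MS with channel sums equalised.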

Row | Target | log2 fold change
1 | S100A2 (UniProt P29034) | inactive: -0.537
2 | RTN4IP1 (UniProt Q8WWV3) | inactive: 0.028
3 | RSU1 (UniProt Q15404) | inactive: -0.02
4 | RRM2B isoform 6 (UniProt Q7LG56) | inactive: 0.005
5 | RRN3 (UniProt Q9NYV6) | inactive: -0.079
6 | RPP21 isoform 4 (UniProt Q9H633) | inactive: 0.008

Compound: CC(C)C1=C2N=C(C=C(N2N=C1)NCC3=CC=CC=C3)NCCCCCCN
Experiment: as above
How it was run: as §1

Row | Target | log2 fold change
7 | RPS27A (UniProt P62979) | inactive: 0.049
8 | RPP14 (UniProt O95059) | inactive: -0.018
9 | RUFY3 isoform 2 (UniProt Q7L099) | inactive: 0.018
10 | RPL36AL (UniProt Q969Q0) | inactive: -0.004
11 | RPSA (UniProt P08865) | inactive: 0.006
12 | RTTN (UniProt Q86VV8) | inactive: 0.379
13 | RYR1 (UniProt P21817) | inactive: -0.088
14 | RPS23 (UniProt P62266) | inactive: 0.04
15 | RYBP (UniProt Q8N488) | inactive: -0.034
16 | RRP7A (UniProt Q9Y3A4) | inactive: 0.002
17 | RPS24 isoform 4 (UniProt P62847) | inactive: -0.004
18 | RPS28 (UniProt P62857) | inactive: -0.002
19 | RPS17 (UniProt P08708) | inactive: 0.008
20 | RSF1 (UniProt Q96T23) | inactive: -0.048
21 | RRM2 isoform 2 (UniProt P31350) | inactive: -0.015
22 | RRS1 (UniProt Q15050) | inactive: 0.009
23 | RPL39P5 (UniProt Q59GN2) | inactive: -0.049
24 | RXRB isoform 3 (UniProt P28702) | inactive: 0.106
25 | RPN1 (UniProt P04843) | inactive: -0.016
26 | RPP25L (UniProt Q8N5L8) | inactive: -0.079
27 | RPS7, A0A2R8Y623 | inactive: -0.145
28 | RWDD2B (UniProt P57060) | inactive: -0.013
29 | S100A14 (UniProt Q9HCY8) | inactive: 0
30 | RPP25 (UniProt Q9BUL9) | inactive: 0
31 | RSAD1 (UniProt Q9HA92) | inactive: 0.038
32 | S100A2 (UniProt P29034) | inactive: 0.027
33 | RTN4IP1 (UniProt Q8WWV3) | inactive: -0.042
34 | RSU1 (UniProt Q15404) | inactive: 0.005
35 | RRM2B isoform 6 (UniProt Q7LG56) | inactive: 0.005
36 | RPP21 isoform 4 (UniProt Q9H633) | inactive: 0.056

Compound: CC1=C(C(CC(=O)N1)C2=CC=C(C=C2)C(F)(F)F)C(=O)NC3=C(C=C4C(=C3)C=NN4)F
Experiment: as above
How it was run: as §1

Row | Target | log2 fold change
37 | RPS27A (UniProt P62979) | inactive: -0.026
38 | RPP14 (UniProt O95059) | inactive: -0.068
39 | RPL36AL (UniProt Q969Q0) | inactive: -0.001
40 | RPSA (UniProt P08865) | inactive: -0.003
41 | RTTN (UniProt Q86VV8) | inactive: -0.053
42 | RPS23 (UniProt P62266) | inactive: -0.029
43 | RYBP (UniProt Q8N488) | inactive: 0.019
44 | RPS24 isoform 4 (UniProt P62847) | inactive: -0.017
45 | RPS28 (UniProt P62857) | inactive: -0.016
46 | RPS17 (UniProt P08708) | inactive: 0.013
47 | RRM2 isoform 2 (UniProt P31350) | inactive: -0.008
48 | RRS1 (UniProt Q15050) | inactive: -0.005
49 | RPL39P5 (UniProt Q59GN2) | inactive: 0.002
50 | RXRB isoform 3 (UniProt P28702) | inactive: 0.026
51 | RPN1 (UniProt P04843) | inactive: -0.002
52 | RPP25L (UniProt Q8N5L8) | inactive: -0.017
53 | RWDD2B (UniProt P57060) | inactive: -0.198
54 | RPP25 (UniProt Q9BUL9) | inactive: 0.027
55 | S100A2 (UniProt P29034) | inactive: -0.178
56 | RTN4IP1 (UniProt Q8WWV3) | active: -0.398
57 | RSU1 (UniProt Q15404) | inactive: 0.019
58 | RRM2B isoform 6 (UniProt Q7LG56) | inactive: 0
59 | RRN3 (UniProt Q9NYV6) | inactive: -0.232
60 | RPP21 isoform 4 (UniProt Q9H633) | inactive: 0.094
61 | S100A16 (UniProt Q96FQ6) | inactive: 0.978

Compound: CC1=C(C2=C(C=C1)C(=O)C3=CC=CC=C3N2CCCN)C
Experiment: as above
How it was run: as §1

Row | Target | log2 fold change
62 | RPS27A (UniProt P62979) | inactive: 0.019
63 | RUFY3 isoform 2 (UniProt Q7L099) | inactive: -0.08
64 | RPL36AL (UniProt Q969Q0) | inactive: 0.068
65 | RPSA (UniProt P08865) | inactive: -0.033
66 | RTTN (UniProt Q86VV8) | inactive: 0.015
67 | RYR1 (UniProt P21817) | inactive: -0.014
68 | RPS23 (UniProt P62266) | inactive: -0.124
69 | RYBP (UniProt Q8N488) | inactive: -0.043
70 | RRP7A (UniProt Q9Y3A4) | inactive: -0.041
71 | RPS24 isoform 4 (UniProt P62847) | inactive: -0.102
72 | RPS28 (UniProt P62857) | inactive: 0.015
73 | RPS17 (UniProt P08708) | inactive: -0.014
74 | RSF1 (UniProt Q96T23) | inactive: 0.064
75 | RRM2 isoform 2 (UniProt P31350) | inactive: 0.022
76 | RRS1 (UniProt Q15050) | inactive: 0.007
77 | RPL39P5 (UniProt Q59GN2) | inactive: 0.01
78 | RXRB isoform 3 (UniProt P28702) | inactive: -0.005
79 | RPN1 (UniProt P04843) | inactive: 0.025
80 | RPP25L (UniProt Q8N5L8) | inactive: -0.019
81 | RPS7, A0A2R8Y623 | inactive: 0.218
82 | RWDD2B (UniProt P57060) | inactive: 0.016
83 | S100A14 (UniProt Q9HCY8) | inactive: 0.359
84 | RPP25 (UniProt Q9BUL9) | inactive: 0.001
85 | RSAD1 (UniProt Q9HA92) | inactive: -0.398
86 | RTN4IP1 (UniProt Q8WWV3) | inactive: -0.011
87 | RSU1 (UniProt Q15404) | inactive: -0.022
88 | RRM2B isoform 6 (UniProt Q7LG56) | inactive: -0.019
89 | RRN3 (UniProt Q9NYV6) | inactive: -0.05
90 | RPP21 isoform 4 (UniProt Q9H633) | inactive: -0.03
